In paper PMC8576004:
These are yes or no findings as the source states them, for the method shown. Binding seen in cells or lysates may run through a third protein. Some entries that bind do so weakly or less than the wild type. Where a sequence is shown, tags or fusion partners need not be part of it. One block for each binder: values may come before it.

Tests used:
[1] = target: FLAG-tagged USP8^Δ645–684 (human) (UniProt P40818); assay: co-IP; co-immunoprecipitation of FLAG- and myc-tagged USP8s (Supplementary Fig. 3f)
[2] = target: FLAG-tagged USP8 (wild type) (human) (UniProt P40818); assay: as above

binding [1]: binds
B1: FLAG-tagged USP8^Δ645–684 (enzyme, UniProt P40818)
chain: MPAVASVPKELYLSSSLKDLNKKTEVKPEKISTKSYVHSALKIFKTAEECRLDRDEERAYVLYMKYVTVYNLIKKRPDFKQQQDYFHSILGPGNIKKAVEEAERLSESLKLRYEEAEVRKKLEEKDRQEEAQRLQQKRQETGREDGGTLAKGSLENVLDSKDKTQKSNGEKNEKCETKEKGAITAKELYTMMTDKNISLIIMDARRMQDYQDSCILHSLSVPEEAISPGVTASWIEAHLPDDSKDTWKKRGNVEYVVLLDWFSSAKDLQIGTTLRSLKDALFKWESKTVLRNEPLVLEGGYENWLLCYPQYTTNAKVTPPPRRQNEEVSISLDFTYPSLEESIPSKPAAQTPPASIEVDENIELISGQNERMGPLNISTPVEPVAASKSDVSPIIQPVPSIKNVPQIDRTKKPAVKLPEEHRIKSESTNHEQQSPQSGKVIPDRSTKPVVFSPTLMLTDEEKARIHAETALLMEKNKQEKELRERQQEEQKEKLRKEEQEQKAKKKQEAEENEITEKQQKAKEEMEKKESEQAKKEDKETSAKRGKEITGVKRQSKSEHETSDAKKSVEDRGKRCPTPEIQKKSTGDVPHTSVTGDSGSGKPFKIKGQPESGILRTGTFREDTDDTERNKAQREPLTRARSEEMPSSAPPSTPPTHKAKPQIPAERDREPSKLKRSYSSPDITQAIQEEEKRKPTVTPTVNRENKPTCYPKAEISRLSASQIRNLNPVFGGSGPALTGLRNLGNTCYMNSILQCLCNAPHLADYFNRNCYQDDINRSNLLGHKGEVAEEFGIIMKALWTGQYRYISPKDFKITIGKINDQFAGYSQQDSQELLLFLMDGLHEDLNKADNRKRYKEENNDHLDDFKAAEHAWQKHKQLNESIIVALFQGQFKSTVQCLTCHKKSRTFEAFMYLSLPLASTSKCTLQDCLRLFSKEEKLTDNNRFYCSHCRARRDSLKKIEIWKLPPVLLVHLKRFSYDGRWKQKLQTSVDFPLENLDLSQYVIGPKNNLKKYNLFSVSNHYGGLDGGHYTAYCKNAARQRWFKFDDHEVSDISVSSVKSSAAYILFYTSLGPRVTDVAT

binding [2]: binds
B2: FLAG-tagged USP8 (wild type) (enzyme, UniProt P40818 1-1118)
chain: MPAVASVPKELYLSSSLKDLNKKTEVKPEKISTKSYVHSALKIFKTAEECRLDRDEERAYVLYMKYVTVYNLIKKRPDFKQQQDYFHSILGPGNIKKAVEEAERLSESLKLRYEEAEVRKKLEEKDRQEEAQRLQQKRQETGREDGGTLAKGSLENVLDSKDKTQKSNGEKNEKCETKEKGAITAKELYTMMTDKNISLIIMDARRMQDYQDSCILHSLSVPEEAISPGVTASWIEAHLPDDSKDTWKKRGNVEYVVLLDWFSSAKDLQIGTTLRSLKDALFKWESKTVLRNEPLVLEGGYENWLLCYPQYTTNAKVTPPPRRQNEEVSISLDFTYPSLEESIPSKPAAQTPPASIEVDENIELISGQNERMGPLNISTPVEPVAASKSDVSPIIQPVPSIKNVPQIDRTKKPAVKLPEEHRIKSESTNHEQQSPQSGKVIPDRSTKPVVFSPTLMLTDEEKARIHAETALLMEKNKQEKELRERQQEEQKEKLRKEEQEQKAKKKQEAEENEITEKQQKAKEEMEKKESEQAKKEDKETSAKRGKEITGVKRQSKSEHETSDAKKSVEDRGKRCPTPEIQKKSTGDVPHTSVTGDSGSGKPFKIKGQPESGILRTGTFREDTDDTERNKAQREPLTRARSEEMGRIVPGLPSGWAKFLDPITGTFRYYHSPTNTVHMYPPEMAPSSAPPSTPPTHKAKPQIPAERDREPSKLKRSYSSPDITQAIQEEEKRKPTVTPTVNRENKPTCYPKAEISRLSASQIRNLNPVFGGSGPALTGLRNLGNTCYMNSILQCLCNAPHLADYFNRNCYQDDINRSNLLGHKGEVAEEFGIIMKALWTGQYRYISPKDFKITIGKINDQFAGYSQQDSQELLLFLMDGLHEDLNKADNRKRYKEENNDHLDDFKAAEHAWQKHKQLNESIIVALFQGQFKSTVQCLTCHKKSRTFEAFMYLSLPLASTSKCTLQDCLRLFSKEEKLTDNNRFYCSHCRARRDSLKKIEIWKLPPVLLVHLKRFSYDGRWKQKLQTSVDFPLENLDLSQYVIGPKNNLKKYNLFSVSNHYGGLDGGHYTAYCKNAARQRWFKFDDHEVSDISVSSVKSSAAYILFYTSLGPRVTDVAT
